Protein sequences, listed by entry. Tags and fused reporters are not part of them. Residues count along the entry.
UniProt P14867, 28-456: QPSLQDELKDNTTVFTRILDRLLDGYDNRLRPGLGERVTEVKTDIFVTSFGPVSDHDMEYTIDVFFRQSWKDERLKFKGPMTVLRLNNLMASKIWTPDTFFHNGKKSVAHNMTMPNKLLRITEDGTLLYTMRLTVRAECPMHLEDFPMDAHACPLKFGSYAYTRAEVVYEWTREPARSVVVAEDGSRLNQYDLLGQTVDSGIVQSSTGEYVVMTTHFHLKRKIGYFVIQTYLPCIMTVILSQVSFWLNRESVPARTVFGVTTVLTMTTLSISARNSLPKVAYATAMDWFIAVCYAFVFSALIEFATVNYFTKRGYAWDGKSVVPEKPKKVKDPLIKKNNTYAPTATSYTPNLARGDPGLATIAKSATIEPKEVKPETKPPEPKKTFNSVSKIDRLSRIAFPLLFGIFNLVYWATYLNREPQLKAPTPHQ
UniProt P18507, 40-475: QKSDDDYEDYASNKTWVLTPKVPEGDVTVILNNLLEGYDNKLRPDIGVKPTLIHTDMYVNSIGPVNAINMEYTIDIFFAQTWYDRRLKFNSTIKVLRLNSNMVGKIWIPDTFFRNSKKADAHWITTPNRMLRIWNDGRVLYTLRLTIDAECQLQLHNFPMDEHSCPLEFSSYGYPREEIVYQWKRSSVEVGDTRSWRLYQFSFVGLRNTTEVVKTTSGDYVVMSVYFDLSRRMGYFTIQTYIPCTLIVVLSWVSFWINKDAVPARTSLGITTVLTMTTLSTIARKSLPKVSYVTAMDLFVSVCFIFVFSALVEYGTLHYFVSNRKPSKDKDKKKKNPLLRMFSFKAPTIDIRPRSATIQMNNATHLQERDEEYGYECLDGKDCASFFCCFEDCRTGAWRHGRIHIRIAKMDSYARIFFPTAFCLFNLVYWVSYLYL

In PMC11956013, “Structure–Activity Relationships and Evaluation of 2-(Heteroaryl-cycloalkyl)-1H-indoles as Tauopathy Positron Emission Tomography Radiotracers” (Journal of Medicinal Chemistry, 2025):

Biological target: BZD (central)(h) (Homo sapiens, UniProt P14867+P18507)
Conditions: reference compound

CN1C(=O)CN=C(c2ccccc2)c2cc(Cl)ccc21 [Diazepam]
nH, Specific binding: 2.004
